Experimental data published in patent US20240374669A1, “SKIN CARE FORMULATION” (MARY KAY INC., priority 2011, published 2024).
At least one structure is not confirmed: it was looked up by name or label, or the drawing left a doubt.

System: epidermis
Test: Thickening of the epidermis (data not shown)

Cc1cc(=O)c2c(O)cc(O)cc2o1 [Dihydroxymethylchromone]
effect on the epidermis: thicken the epidermis
